Reference: patent US20250065147A1, “SYSTEMS AND METHODS FOR PHOTODYNAMIC THERAPY” (Virginia Commonwealth University, priority 2023, published 2025)

Test system: HCC (human liver cancer)
Test: PDT with ICG (809 nm laser) in PDOX mouse model
Type: in vivo
Description: We set up a study of PDT with ICG using patient derived orthotopic xenograft (PDOX) mouse model (FIG. 7). In the PDOX model, the mouse liver has human liver cancer. […] We then found the optimal laser wavelength that liver-ICG can absorb with maximum intensity which was 809 nm (FIG. 2). We set up the laser to treat HCC with PDT with the setting numbers in Table 1.

## CC1(C)C(/C=C/C=C/C=C/C=C2\N(CCCCS(=O)(=O)O)c3ccc4ccccc4c3C2(C)C)=[N+](CCCCS(=O)(=O)[O-])c2ccc3ccccc3c21 [ICG, indocyanine green]
24-48 hrs after applying 809 nm laser (Table 1 settings)
  finding on IVIS imaging after laser: breakdown of ICG
Specimen after PDT with ICG
  pathologic evaluation: ICG on the specimen: breakdown of ICG
